Binding data for two molecules are collected here from publication PMC7595419.

These are yes or no findings as the source states them, for the method shown. For part of these data: Binding seen in cells or lysates may run through a third protein. For part of these data: Where a sequence is shown, tags or fusion partners need not be part of it.

For experiment [1], the target named is T1, LexA_(DBDwt)-InvF (Salmonella Typhimurium) (UniProt P69343).
T1 sequence: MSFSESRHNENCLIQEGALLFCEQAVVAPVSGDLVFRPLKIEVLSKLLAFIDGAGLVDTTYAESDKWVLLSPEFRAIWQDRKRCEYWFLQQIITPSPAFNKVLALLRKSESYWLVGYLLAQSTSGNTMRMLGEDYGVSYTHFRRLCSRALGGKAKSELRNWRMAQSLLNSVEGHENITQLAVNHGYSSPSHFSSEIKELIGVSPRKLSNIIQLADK
The experiment in a line: two-hybrid.

Experiment [2] concerns the target T1, LexA_(DBDwt)-InvF (Salmonella Typhimurium). The experiment in a line: two-hybrid; LexA-based bacterial two-hybrid, homodimer system in E. coli SU101, with SicA supplied in trans (pTOPO-SicA).
Experiment [3] addresses T2, MBP-InvF (expressed in Salmonella invF::Flag strain) (Salmonella Typhimurium) (UniProt P69343).
T2 sequence: T1 sequence
The experiment in a line: pull-down.

B1: LexA_(DBDwt)-InvF (protein, UniProt P69343 1-216)
chain: T1 sequence
As for B1, the binding entry in experiment [1] and in experiment [2] was “no binding” in each case.

B2: InvF-Flag (genomic version) (protein, UniProt P69343 1-216)
chain: T1 sequence
For B2, in experiment [3], the binding result is reported as “no binding”.
